Data as given in the supplement of paper PMC6411743.
± gives the standard deviation of the averaged measurements. Some of the results follow.

Chains of the proteins cited; added tags and fusions are not shown. Lines headed by an entry give the natural chain unless they say otherwise; changes in a name come on top.
UniProt P07203, whole entry: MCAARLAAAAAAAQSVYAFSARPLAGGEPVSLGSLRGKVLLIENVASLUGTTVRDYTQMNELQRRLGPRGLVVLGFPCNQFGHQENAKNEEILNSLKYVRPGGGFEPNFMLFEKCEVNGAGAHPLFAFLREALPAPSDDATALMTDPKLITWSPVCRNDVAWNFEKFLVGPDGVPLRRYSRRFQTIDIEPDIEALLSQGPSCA
UniProt Q8NCP5: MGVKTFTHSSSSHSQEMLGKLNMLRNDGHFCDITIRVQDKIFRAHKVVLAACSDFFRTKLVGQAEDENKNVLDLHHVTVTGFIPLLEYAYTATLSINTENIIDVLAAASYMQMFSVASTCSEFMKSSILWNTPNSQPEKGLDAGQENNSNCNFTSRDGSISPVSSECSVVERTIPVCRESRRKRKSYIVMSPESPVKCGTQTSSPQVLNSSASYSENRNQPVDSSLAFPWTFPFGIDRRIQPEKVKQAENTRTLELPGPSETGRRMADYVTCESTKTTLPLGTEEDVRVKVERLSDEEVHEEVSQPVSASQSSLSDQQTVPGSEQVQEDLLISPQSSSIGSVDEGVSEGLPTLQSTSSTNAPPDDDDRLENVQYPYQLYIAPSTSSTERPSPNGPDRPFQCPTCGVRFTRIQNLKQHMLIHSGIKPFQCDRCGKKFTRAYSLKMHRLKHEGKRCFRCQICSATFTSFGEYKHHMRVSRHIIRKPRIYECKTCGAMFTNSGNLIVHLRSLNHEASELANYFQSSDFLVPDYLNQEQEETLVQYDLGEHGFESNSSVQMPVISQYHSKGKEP
UniProt Q9H0W9: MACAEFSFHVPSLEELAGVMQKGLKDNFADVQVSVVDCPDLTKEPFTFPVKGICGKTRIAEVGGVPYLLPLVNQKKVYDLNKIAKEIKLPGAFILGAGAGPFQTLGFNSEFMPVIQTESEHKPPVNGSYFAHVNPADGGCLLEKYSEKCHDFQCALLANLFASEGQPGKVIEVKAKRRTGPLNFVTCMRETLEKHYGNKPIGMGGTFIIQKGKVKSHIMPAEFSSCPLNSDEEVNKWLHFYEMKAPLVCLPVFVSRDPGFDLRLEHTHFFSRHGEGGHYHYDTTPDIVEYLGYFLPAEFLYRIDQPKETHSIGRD
UniProt O14979: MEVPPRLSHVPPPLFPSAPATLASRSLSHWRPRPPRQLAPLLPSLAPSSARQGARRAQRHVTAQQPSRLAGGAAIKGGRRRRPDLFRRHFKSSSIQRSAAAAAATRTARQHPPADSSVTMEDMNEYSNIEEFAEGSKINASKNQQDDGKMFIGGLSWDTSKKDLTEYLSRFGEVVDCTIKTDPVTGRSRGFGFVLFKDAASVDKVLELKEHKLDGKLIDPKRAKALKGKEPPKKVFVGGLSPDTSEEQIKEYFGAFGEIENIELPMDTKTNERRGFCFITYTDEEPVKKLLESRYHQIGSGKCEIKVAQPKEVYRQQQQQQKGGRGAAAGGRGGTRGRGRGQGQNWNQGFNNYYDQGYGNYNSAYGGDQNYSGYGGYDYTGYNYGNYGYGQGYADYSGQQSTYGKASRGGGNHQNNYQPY
UniProt Q70IA6: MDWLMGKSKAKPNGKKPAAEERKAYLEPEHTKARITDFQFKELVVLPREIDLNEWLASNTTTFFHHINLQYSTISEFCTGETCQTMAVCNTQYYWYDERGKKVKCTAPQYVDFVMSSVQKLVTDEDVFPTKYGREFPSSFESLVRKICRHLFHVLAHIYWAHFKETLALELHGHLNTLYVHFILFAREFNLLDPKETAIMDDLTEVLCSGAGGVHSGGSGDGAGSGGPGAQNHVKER
UniProt Q9H4M9: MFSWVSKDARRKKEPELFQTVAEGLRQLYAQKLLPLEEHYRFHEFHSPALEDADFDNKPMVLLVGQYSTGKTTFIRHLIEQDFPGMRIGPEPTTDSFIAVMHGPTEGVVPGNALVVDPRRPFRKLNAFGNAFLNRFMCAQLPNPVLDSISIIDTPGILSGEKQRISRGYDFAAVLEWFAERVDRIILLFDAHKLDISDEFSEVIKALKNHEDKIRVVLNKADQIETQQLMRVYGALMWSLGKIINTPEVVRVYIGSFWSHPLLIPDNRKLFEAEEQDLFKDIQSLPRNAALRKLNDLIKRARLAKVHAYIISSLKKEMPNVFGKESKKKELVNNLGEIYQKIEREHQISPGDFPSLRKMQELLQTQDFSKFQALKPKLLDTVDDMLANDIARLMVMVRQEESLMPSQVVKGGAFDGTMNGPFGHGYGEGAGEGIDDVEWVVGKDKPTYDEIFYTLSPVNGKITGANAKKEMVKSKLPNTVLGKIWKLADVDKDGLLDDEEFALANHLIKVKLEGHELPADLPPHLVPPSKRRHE
UniProt P46379: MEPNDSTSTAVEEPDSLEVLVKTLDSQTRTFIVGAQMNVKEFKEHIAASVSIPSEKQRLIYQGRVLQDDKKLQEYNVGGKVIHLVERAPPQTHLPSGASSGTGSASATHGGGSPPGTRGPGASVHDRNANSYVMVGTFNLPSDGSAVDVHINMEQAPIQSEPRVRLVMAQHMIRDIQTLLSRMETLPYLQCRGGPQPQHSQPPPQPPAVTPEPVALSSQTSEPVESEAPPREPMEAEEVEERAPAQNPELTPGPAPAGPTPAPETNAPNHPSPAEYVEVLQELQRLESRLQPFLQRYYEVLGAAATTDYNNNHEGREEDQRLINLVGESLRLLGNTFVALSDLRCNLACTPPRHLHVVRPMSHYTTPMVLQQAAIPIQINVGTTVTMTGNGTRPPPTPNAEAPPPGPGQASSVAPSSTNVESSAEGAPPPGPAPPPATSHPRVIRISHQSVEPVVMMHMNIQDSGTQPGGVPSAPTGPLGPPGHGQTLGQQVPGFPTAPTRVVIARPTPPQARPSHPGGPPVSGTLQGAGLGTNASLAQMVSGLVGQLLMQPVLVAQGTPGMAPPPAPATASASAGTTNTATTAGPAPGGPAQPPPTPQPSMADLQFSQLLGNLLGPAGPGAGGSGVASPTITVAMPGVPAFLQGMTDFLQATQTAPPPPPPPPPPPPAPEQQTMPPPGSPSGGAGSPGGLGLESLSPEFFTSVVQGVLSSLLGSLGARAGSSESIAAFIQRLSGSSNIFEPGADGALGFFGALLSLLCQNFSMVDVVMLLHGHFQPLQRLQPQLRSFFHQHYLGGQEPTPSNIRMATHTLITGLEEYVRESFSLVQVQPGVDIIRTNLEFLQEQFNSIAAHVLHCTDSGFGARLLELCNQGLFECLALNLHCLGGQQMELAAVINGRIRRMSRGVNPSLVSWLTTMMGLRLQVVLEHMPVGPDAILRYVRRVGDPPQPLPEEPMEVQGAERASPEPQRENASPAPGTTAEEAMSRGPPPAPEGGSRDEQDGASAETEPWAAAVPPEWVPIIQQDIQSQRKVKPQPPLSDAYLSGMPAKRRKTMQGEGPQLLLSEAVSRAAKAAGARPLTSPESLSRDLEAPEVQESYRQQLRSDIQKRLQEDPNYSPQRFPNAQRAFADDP
UniProt Q6UB35, whole entry: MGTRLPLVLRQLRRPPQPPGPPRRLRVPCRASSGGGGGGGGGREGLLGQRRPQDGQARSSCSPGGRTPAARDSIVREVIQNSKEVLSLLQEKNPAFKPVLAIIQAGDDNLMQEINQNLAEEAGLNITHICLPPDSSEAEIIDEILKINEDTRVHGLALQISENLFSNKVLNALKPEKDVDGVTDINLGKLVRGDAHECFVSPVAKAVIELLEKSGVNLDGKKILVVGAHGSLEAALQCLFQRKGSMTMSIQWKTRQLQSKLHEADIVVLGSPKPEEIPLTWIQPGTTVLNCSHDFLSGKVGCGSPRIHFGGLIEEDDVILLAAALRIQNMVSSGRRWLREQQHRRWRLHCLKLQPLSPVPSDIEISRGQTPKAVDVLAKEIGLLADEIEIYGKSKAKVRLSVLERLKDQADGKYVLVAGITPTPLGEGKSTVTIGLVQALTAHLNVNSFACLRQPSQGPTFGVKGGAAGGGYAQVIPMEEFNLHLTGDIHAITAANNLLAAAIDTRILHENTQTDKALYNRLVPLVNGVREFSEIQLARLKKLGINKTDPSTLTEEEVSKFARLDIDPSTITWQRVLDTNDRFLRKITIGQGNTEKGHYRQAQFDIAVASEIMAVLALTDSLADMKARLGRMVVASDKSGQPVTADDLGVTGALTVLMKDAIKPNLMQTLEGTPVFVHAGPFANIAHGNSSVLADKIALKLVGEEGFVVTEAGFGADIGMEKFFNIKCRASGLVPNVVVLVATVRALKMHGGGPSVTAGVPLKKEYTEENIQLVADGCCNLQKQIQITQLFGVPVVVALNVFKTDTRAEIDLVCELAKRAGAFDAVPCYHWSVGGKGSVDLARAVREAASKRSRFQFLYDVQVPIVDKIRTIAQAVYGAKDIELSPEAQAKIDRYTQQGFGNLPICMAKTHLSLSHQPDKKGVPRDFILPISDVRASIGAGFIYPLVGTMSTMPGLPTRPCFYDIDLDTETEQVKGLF
UniProt Q96T37: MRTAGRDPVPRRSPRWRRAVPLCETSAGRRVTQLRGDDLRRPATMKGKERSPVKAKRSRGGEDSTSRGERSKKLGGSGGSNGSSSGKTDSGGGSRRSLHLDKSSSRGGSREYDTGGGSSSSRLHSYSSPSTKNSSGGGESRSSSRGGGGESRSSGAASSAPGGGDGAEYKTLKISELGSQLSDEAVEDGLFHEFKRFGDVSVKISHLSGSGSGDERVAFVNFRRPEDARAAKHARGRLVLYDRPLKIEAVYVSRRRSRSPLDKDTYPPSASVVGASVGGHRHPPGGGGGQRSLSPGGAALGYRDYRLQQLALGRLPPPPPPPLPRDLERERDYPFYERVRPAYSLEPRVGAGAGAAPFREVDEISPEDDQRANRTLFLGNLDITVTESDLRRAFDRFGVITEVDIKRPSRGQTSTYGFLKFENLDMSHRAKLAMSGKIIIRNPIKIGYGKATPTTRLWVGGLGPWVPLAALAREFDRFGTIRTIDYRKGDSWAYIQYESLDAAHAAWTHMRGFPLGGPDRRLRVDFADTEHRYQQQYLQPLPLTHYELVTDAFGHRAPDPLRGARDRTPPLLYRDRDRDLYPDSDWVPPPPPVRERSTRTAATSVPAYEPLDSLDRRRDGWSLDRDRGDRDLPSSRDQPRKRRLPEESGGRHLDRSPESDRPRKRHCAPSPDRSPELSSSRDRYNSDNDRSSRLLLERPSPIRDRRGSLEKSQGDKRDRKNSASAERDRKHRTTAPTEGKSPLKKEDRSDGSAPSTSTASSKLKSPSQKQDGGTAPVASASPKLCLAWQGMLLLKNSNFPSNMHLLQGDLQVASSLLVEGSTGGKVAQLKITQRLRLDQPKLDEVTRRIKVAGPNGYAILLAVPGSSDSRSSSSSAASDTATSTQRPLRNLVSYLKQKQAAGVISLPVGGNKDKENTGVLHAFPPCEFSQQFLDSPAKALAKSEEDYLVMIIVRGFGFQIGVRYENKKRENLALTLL
UniProt Q9H0U3: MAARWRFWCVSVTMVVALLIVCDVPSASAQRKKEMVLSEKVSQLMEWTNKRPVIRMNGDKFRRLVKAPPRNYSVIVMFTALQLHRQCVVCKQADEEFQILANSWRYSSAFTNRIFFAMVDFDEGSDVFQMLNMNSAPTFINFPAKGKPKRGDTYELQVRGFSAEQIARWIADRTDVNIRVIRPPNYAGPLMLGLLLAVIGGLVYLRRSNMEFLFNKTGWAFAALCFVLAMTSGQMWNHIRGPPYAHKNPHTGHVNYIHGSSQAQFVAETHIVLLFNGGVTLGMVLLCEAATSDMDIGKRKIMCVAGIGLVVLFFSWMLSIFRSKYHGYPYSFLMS

Compound: Nc1nc2c(ncn2[C@@H]2O[C@H](COP(=O)(O)OP(=O)(O)OP(=O)(O)O)[C@@H](O)[C@H]2O)c(=O)[nH]1 [guanosine triphosphate]
Assay: NP40-soluble protein abundance relative to vehicle (solubility fold change) (ratio); higher = more soluble protein in presence of GTP
Procedure, shortened: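 Crude Jurkat lysate, prepared by Dounce homogenisation, was exposed to eight concentrations from 0.1 to 10 mM for 10 min at room temperature and then 3 min at 37 °C. Solubilisation used 0.8% NP40 with benzonase for 60 min at 4 °C, followed by ultracentrifugation and TMT labelling of the supernatant for LC-MS/MS. After vsn normalisation of intensities, each value is the fold change against the detergent-processed vehicle within each replicate, across three independent experiments.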

Target	NP40-soluble protein abundance (concentration: 0.1mM)	NP40-soluble protein abundance (concentration: 0.5mM)	NP40-soluble protein abundance (concentration: 1mM)	NP40-soluble protein abundance (concentration: 2mM)	NP40-soluble protein abundance (concentration: 4mM)	NP40-soluble protein abundance (concentration: 6mM)	NP40-soluble protein abundance (concentration: 8mM)	NP40-soluble protein abundance (concentration: 10mM)
A0A024R4M0|P46781 (UniProt P46781)	0.943 ± 0.11	0.994 ± 0.17	0.912 ± 0.21	0.909 ± 0.28	0.821 ± 0.33	0.712 ± 0.28	0.601 ± 0.2	0.66 ± 0.25
A0A087WUQ6|P07203 (UniProt P07203)	0.93 ± 0.087	0.88 ± 0.064	0.929 ± 0.097	0.895 ± 0.12	0.892 ± 0.092	0.867 ± 0.12	0.884 ± 0.052	0.888 ± 0.12
A0A087WV65|H0YEM9 and related entries (UniProt Q8NCP5)	1.06 ± 0.046	0.962 ± 0.021	1.02 ± 0.014	1.06 ± 0.05	1.17 ± 0.039	1.14 ± 0.076	1.31 ± 0.11	1.13 ± 0.074
A0A087WTW5|Q9UKL3 (UniProt Q9UKL3)	1.02 ± 0.082	1.02 ± 0.06	1.06 ± 0.052	1.05 ± 0.034	1.05 ± 0.11	1.03 ± 0.049	1.13 ± 0.069	1.06 ± 0.11
A0A087WT99|Q9H0W9 and related entries (UniProt Q9H0W9)	0.993 ± 0.094	0.942 ± 0.069	0.925 ± 0.048	0.899 ± 0.068	0.872 ± 0.058	0.897 ± 0.087	0.901 ± 0.11	0.848 ± 0.053
A0A087WUK2|O14979-3|O14979 and related entries (UniProt O14979)	0.947 ± 0.074	0.983 ± 0.03	1.01 ± 0.019	1.01 ± 0.068	1.02 ± 0.11	1.01 ± 0.062	1.05 ± 0.13	1.05 ± 0.13
A0A087WVS8|Q70IA6 and related entries (UniProt Q70IA6)	1.08 ± 0.072	1.04 ± 0.12	1 ± 0.015	1.02 ± 0.034	0.991 ± 0.048	0.974 ± 0.022	0.975 ± 0.055	0.915 ± 0.03
A0A087WTA1|A0A0A0MR20|E9PDN6 and related entries (UniProt Q9C0A0)	1.1 ± 0.18	0.805 ± 0.085	1.01 ± 0.098	0.855 ± 0.014	1.2 ± 0.068	0.835 ± 0.023	1.23 ± 0.23	0.877 ± 0.11
A0A024R571|Q9H4M9 (UniProt Q9H4M9)	0.995 ± 0.046	0.994 ± 0.044	0.939 ± 0.036	0.934 ± 0.02	0.913 ± 0.046	0.912 ± 0.027	0.893 ± 0.039	0.868 ± 0.058
A0A024RCR6|A0A0G2JK23|P46379 and related entries (UniProt P46379)	0.93 ± 0.085	0.951 ± 0.058	0.933 ± 0.062	0.939 ± 0.05	0.921 ± 0.097	0.935 ± 0.061	0.906 ± 0.07	0.963 ± 0.085
A0A087WVM4|B7ZM99 (UniProt Q6UB35)	1 ± 0.017	1.01 ± 0.029	0.945 ± 0.014	0.938 ± 0.033	0.937 ± 0.013	0.918 ± 0.01	0.892 ± 0.029	0.866 ± 0.062
A0A087WWP4|Q96T37 and related entries (UniProt Q96T37)	1 ± 0.044	0.989 ± 0.033	1.01 ± 0.053	1.03 ± 0.048	1.04 ± 0.046	1.06 ± 0.046	1.07 ± 0.059	1.08 ± 0.049
A0A087WU53|Q9H0U3 (UniProt Q9H0U3)	1 ± 0.06	0.984 ± 0.048	0.914 ± 0.034	0.945 ± 0.069	0.963 ± 0.073	0.941 ± 0.088	0.947 ± 0.081	0.959 ± 0.036
